Measurements as given in patent publication US20250122301A1 (IBIO, published 2025).
Results are given in words; binding and its absence hold for the method and conditions named. Some entries that bind do so weakly or less than the wild type.

By UniProt entry, the sequences of proteins in these tests, tags left out. Where a name states a change or a piece, a line headed by the entry shows the natural chain unless it says otherwise. Chains listed by the source or under a name are the forms on record and can include a tag or linker. Residues count along the entry.
UniProt P01589: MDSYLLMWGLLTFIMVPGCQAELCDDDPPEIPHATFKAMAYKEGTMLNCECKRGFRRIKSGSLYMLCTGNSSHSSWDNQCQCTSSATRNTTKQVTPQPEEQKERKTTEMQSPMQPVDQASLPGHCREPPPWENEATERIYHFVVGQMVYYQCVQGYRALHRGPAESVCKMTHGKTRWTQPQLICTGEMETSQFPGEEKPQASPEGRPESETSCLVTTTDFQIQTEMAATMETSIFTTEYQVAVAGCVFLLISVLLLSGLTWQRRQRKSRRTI
CD25 on CD25+ cells (SUDHL-1, HEK IL-2 reporter cells, primary human regulatory T cells): residues 22-272 of P01589
full-length CD25 (human CD25, recombinant protein used on biosensors): residues 22-213 of P01589
recombinant cynomolgus monkey (cyno) CD25 (H6WS54, form named): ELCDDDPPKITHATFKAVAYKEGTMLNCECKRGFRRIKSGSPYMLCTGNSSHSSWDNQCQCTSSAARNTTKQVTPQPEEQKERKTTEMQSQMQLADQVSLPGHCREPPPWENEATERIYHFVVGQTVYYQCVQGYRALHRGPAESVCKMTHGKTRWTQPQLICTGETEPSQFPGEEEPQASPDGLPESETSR

What was measured:
[1] = target: CD25 on CD25+ cells (SUDHL-1, HEK IL-2 reporter cells, primary human regulatory T cells) (human) (UniProt P01589); test: flow cytometry, 10 ug/mL antibody, HEK IL-2 reporter cells (CD25+)
[2] = target: CD25 on CD25+ cells (SUDHL-1, HEK IL-2 reporter cells, primary human regulatory T cells) (human) (UniProt P01589); test: flow cytometry, 10 ug/mL antibody, SUDHL-1 cells (CD25+)
[3] = target: CD25 on CD25+ cells (SUDHL-1, HEK IL-2 reporter cells, primary human regulatory T cells) (human) (UniProt P01589); test: flow cytometry, SUDHL-1 and HEK IL-2 reporter cells
[4] = target: full-length CD25 (human CD25, recombinant protein used on biosensors) (human) (UniProt P01589); test: BLI (Octet RED384): antibody on AR2G sensor, 300 nM full-length CD25, 1:1 fit
[5] = target: recombinant cynomolgus monkey (cyno) CD25 (cynomolgus monkey) (UniProt H6WS54); test: ELISA on coated recombinant cyno CD25, OD450

Binder	binding [1]	binding [2]	binding [3]	binding [4]	binding [5]
AH05257 (human IgG1 reformatted) (antibody, V domains shown) VH: QVQLQQSGAELVRPGVSLKISCKGSGYTFTDYAMHWVRQSHAKSLEWIGVISTYSGDAIYNQKFKGKATMTVDKSSSTAYLELARLTSEDSAIYYCARGVTFDYWGQGTTLTVSA VL: DIVMTQSTSSLSASLGDRVTISCRASQDISNYLSWYQQKPDGTIKLLIYYTSRLHSGVSSRFSGSGSGTDYSLTISNLEQEDFATYFCQQGHTLPPTFGGGTKLEIK	binds	binds	binds	binds	–
AH05271 (human IgG1 reformatted) (antibody, V domains shown) VH: QVQLQQSGAELVRPGVSVKISCKGSGYTFTDYAMHWVKQSHAKSLEWIGVISTYSGDVSYNQKFKGKATMTVDKSSSTAYMELARLTSEDSATYYCARGVTFDSWGQGTTLTVSS VL: DIQMTQTPASLAASVGETVTITCRASENIYFSLAWYQQKQGKSPQLLIYNANTLEDGVPSRFSGSGSGTQFSMKINNMQPEDTATYFCKQAYDVPWTFGGGTKLEIK	binds	binds	binds	binds	–
D5 (human IgG1 reformatted) (antibody, V domains shown) VH: QVQLQQSGAELVRPGTSVKISCKASGYTFTNYWLGWVKQRPGHGLEWIGDIYPGGGYTNYNEKFKGKATLTADTSSSTAYMQLSSLTSEDSAVYFCARVTPASWGQGTSLTVSS VL: DIVMTQSQKFMSTSVGDRVSVTCKASQNVGTNVAWYQQKPGQSPKALIYSASYRYSGVPDRFTGSGSGTDFTLTISNVQSEDLAEYFCQQYNSYPYTFGGGTKLEMK	binds	binds	binds	binds	–
AH04509 (human IgG1 reformatted) (antibody, V domains shown, also called AH4509) VH: QIQLQQSGAELVRPGTSVKMSCKAAGYTFTNYWIGWVKQRPGHGLEWIGDFYPGGDYINYNEKFKGKATLTADTSSSTAYMQLSSLTSEDSAIYYCTSRNFAYWGQGTPVTVSS VL: DTTVTQSQRFMSTSVGDRVSVTCKASQNVGTNVAWYQQKPGQSPKPLIYSASYRYSGVPDRFTGSGSGTDFTLTINNVQSEDLAEYFCQQYNNSPLTFGGGTKLEIK	–	–	–	binds	binds
AH04524 (human IgG1 reformatted) (antibody, V domains shown, also called AH4524) VH: QIQLQQSGAELVRPGTSVKMSCKAAGYTFTNYWIGWVKQRPGHGLEWIGDIHPGGDYSNYNEKFKGKATLTADTSSSTAYMSLSSLTSEDSAIYYCTSRNFAYWGQGTLVTVSA VL: DIVMTQSQKFMSTSVGDRVSVTCKASQNVGTNVAWYQQKPGQSPKALIYSASYRYSGVPDRFTGSGSGTDFTLTISNVQSEDLAEYFCQQYNSYPYTFGGGTKLEIK	–	–	–	binds	–
AH04503 (human IgG1 reformatted) (antibody, V domains shown, also called AH4503) VH: QVQLQQPGAELVRPGTSVKMSCKAAGYTFSNYWIGWVKQRPGHGLEWIGDIHPGGGYINYNEKFTGKATLTADTSSSTAYMQLSSLTSEDSAIYYCVSRNFANWGQGTLVTVSA VL: DIQMTQSQKFMSTSVGDRVSVTCKASQNVGTNVAWYQQKPGQSPKALIYSASYRYSGVPDRFTGSGSGTDFTLTISNVQSEDLAEYFCQQYNSYPWTFGGGTKLEIK	–	–	–	binds	binds
AH04518 (human IgG1 reformatted) (antibody, V domains shown, also called AH4518) VH: QVQLQQSGAELVRPGTSVKMSCKAAGYTFTNYWIGWVKQRPGHDLEWIGDIHPGGDYSNYNEKFKGKATLTADTSSSTAYMNLSSLTSEDSAIYYCTSRNFAYWGQGTLVTVSA VL: DILLTQSQKFMSTSVGDRVSVTCKASQNVGTNVAWYQQKPGQSPKALIYSASYRYSGVPDRFTGSGSGTDFTLTISNVQSEDLAEYFCQQYNSYPYTFGGGTKLEIK	–	–	–	binds	binds
AH04511 (human IgG1 reformatted) (antibody, V domains shown, also called AH4511) VH: QIQLQQSGAELVRPGTSVKMSCKAAGYTFSNYWIGWVKQRPGHGLEWIGDIHPGGGYINYNEKFTGKATLTADTSSSTAYMQLSSLTSEDSAIYYCVSRNFANWGQGTLVTVSA VL: DIVMSQSQKFMSTSVGDRVSVTCKASQNVGTNVAWYQQKPGQSPKALIYSASYRYSGVPDRFTGSGSGTDFTLTISNVQSEDLAEYFCQQYNSYPYTFGGGTKLEIK	–	–	–	binds	binds
AH04501 (human IgG1 reformatted) (antibody, V domains shown, also called AH4501) VH: QVQLQQPGAELVRPGTSVKMSCKAAGYTFTNYWIGWVKQRPGHGLEWIGDIHPGGDYSNYNEKFKGKATLTADTSSSTAYMNLSSLTSEDSAIYYCTSRNFAYWGQGTLVTVSA VL: DVVMTQTQKFTSTSVGDRVSVTCKASQNVGTNVAWYQQKPGQSPKALIYSASYRYSGVPDRFTGSGSGTDFTLTISNVQSEDLAEYFCQQYNSYPYTFGGGTKLEIK	–	–	–	binds	binds
AH04507 (human IgG1 reformatted) (antibody, V domains shown) VH: QVQLQQSGAELVRPGTSVKMSCKAAGYTFTNYWIGWVKQRPGHGLEWIGDIHPGGGYIDYNEKFTGKATLTADTSSSTAYMQLSSLTSEDSAIYYCVSRNFAKWGQGTLVTVSA VL: DTTVTQSQKFMSTSVGDRVSVTCKASQNVGTNVAWYQQKPGQSPKALIYSASYRYSGVPDRFTGSGSGTDFTLTISNVQSEDLAEYFCQQYNSYPYTFGGGTKLEIK	–	–	–	binds	binds
AH04502 (human IgG1 reformatted) (antibody, V domains shown, also called AH4502) VH: QIQLQQSGAELVRPGTSVKMSCKAAGYTFTNYWIGWVKQRPGHGLEWIGDIHPGGGYTNYNEKFKGKATLTADTSSSTADMQLSSLTSEDSAIYYCTSRNFAYWGQGTLVTVSA VL: DIVMTQSQKFMSTSVGDRVSVTCKASQNVGINVAWYQQKPGQSPKALIYSASYRYSGVPDRFTGSGSGTDFTLTISNVQSEDLAEYFCQQYNSYPYTFGGGTKLEIK	–	–	–	binds	binds
AH05274 (human IgG1 reformatted) (antibody, V domains shown) VH: QVQLQQSGAELVRPGTSVKISCKASGYTFTNYWLGWIKQRPGHGLEWIGDIYPGGGYTNYNEKFKGKATLTADTSSSTAYMQLSSLTSEDSAVYFCARVTPASWGQGTSLTVSS VL: DIQMTQSQKFMSTSVGDRVSVTCKASQNVGTNVAWYQQKPGQSPKALIYSASYRYSGVPDRFTGSGSGTDFTLTISNVQSEDLAEYFCQQYNSYPYTFGGGTKLEIK	binds	binds	binds	binds	binds
AH04505 (human IgG1 reformatted) (antibody, V domains shown, also called AH4505) VH: DVQLQQSGAELVRPGTSVKMSCKAAGYTFTNYWIGWVKQRPGHGLEWIGDIHPGGGYTNYNEKFKGKATLTADTSSSTAYMQLSSLTSEGSAIYYCTSRNFAYWGQGTLVTVSA VL: DTTVTQSQKFMSTSVGDRVSVTCKASQNVGTNVAWYQQKPGQSPKALIYSASYRYSGVPDRFTGSGSGTDFTLTISNVQSEDLAEYFCQQYNSYPYTFGGGTKLEMK	–	–	–	binds	binds

Other lines, results leading:

binding [1]	binding [2]	binding [3]	binding [4]	binding [5]	Binder
binds	binds	binds	–	–	AH05214 (human IgG1 reformatted) (antibody, V domains shown) VH: QIQLQQPGAELVKPGASVKLPCKASGYTFTSYWMHWVKQRPGQGLEWIGEINPSNGRTNYNEKFKSKATLTVDKSSSTAYMQLSSLTSEDSAVYYCARQLAAYWGQGTTVTVSS VL: DILLTQSPALMAASPGEKVTITCSVSSSISSSNLHWYQQKSETSPKPWIYGTSNLASGVPVRFSGSGSGTSYSLTISSMEAEDAATYYCQQWSSYPLTFGGGTKLEIK
binds	binds	binds	binds	–	AH05258 (human IgG1 reformatted) (antibody, V domains shown) VH: QIQLQQSGAELVRPGVSVKISCKGSGYTFTDYAMHWVKQSHAKSLEWIGVISTYSGDVSYNQKFKGKATMTVDKSSSTAYMELARLTSEDSAIYYCARGVTFDSWGQGTTLTVSS VL: DIVMTQSHKFMSTSVGDRVSITCKASQDVSTAVAWYQQKPGQSPKLLIYSASYRYTGVPDRFTGSGSGTDFTFTISSVQAEDLAVYYCQQHYSTPFTFGSGTKLEIK
binds	binds	binds	binds	–	AH05286 (human IgG1 reformatted) (antibody, V domains shown) VH: QVQLKQSGADLMKPGASVKISCKASGYTFSNYWIEWIKQRPGHGLEWIGEILPGSGYTNYNENFKGKATFTADTSSNTTYIQLSSLSSEDSAVYYCARGGTSFVHFDYWGQGTTLTVSS VL: DIVLTQSPPTLSLSPGERVTLSCKASQDVNTAVAWYQQKPGQAPRLLIYWASTRHTGVPSRFSGSGSGTDFTLTISSLQPEDFATYYCQQHYSSPWTFGGGTKLEIK
–	–	–	binds	binds	AH04523 (human IgG1 reformatted) (antibody, V domains shown, also called AH4523) VH: QIQLQQSGAELVRPGTSVKMSCKAAGYTFTNYWIGWVKQRPGHGLEWIGDIHPGGSYTNYNENFKGKATFTADTSSSTTYMQLSSLTSEDSAIYFCTSRNFAKWGQGTPVTVSS VL: DIVLTQSQKFMSTSVGDRVSVTCKASQNVGTNVAWYQQKPGQSPKALIYSASYRYSGVPDRFTGSGSGTDFTLTISNVQSEDLAEYFCQQYNSYPYTFGGGTKLEIK
–	–	–	binds	binds	AH04525 (human IgG1 reformatted) (antibody, V domains shown, also called AH4525) VH: QVQLQQSGAELVRPGTSVKMSCKAAGYTFTNYWIGWIKQRPGHGLEWIGDIHPGGDYTNYNEKFKGKATLTADTFSSTAYMQLSSLTSEDSAIYYCTGRNFAYWGQGTLVTVSS VL: DNVLTQSQKFMSTSVGDRVSVTCKASQNVGTNVAWYQQKPGQSPKALIYSASYRYSGVPDRFTGSGSGTDFTLTISNVQSEDLAEYFCQQYNSYPYTFGGGTKLEMK
–	–	–	binds	binds	AH04522 (human IgG1 reformatted) (antibody, V domains shown) VH: QIQLQQSGAELVRPGTSVKMSCKAAGYTFTNYWIGWVKQRPGHGLEWIGDIHPGGGYTNYNEKFKGKATLTADTSSSTAYMQLSSLTSEDSAIYYCTSRNFAYWGQGTLVTVSA VL: DTTVTQSQKFMSTSVGDRVSVTCKAGQNVGTNVAWYQQKPGQSPKALIYSASYRYSGVPDRFTGSGSGTDFTLTISNVQSEDLAEYFCQQYNSYPYTFGGGTKLEIK
